# Test results: the supplement of paper PMC12823440, “Inhibitors supercharge kinase turnover through native proteolytic circuits” (Nature, 2025)
# The chains behind the UniProt entries cited, without tags or fusion partners.
# UniProt P00519, whole entry: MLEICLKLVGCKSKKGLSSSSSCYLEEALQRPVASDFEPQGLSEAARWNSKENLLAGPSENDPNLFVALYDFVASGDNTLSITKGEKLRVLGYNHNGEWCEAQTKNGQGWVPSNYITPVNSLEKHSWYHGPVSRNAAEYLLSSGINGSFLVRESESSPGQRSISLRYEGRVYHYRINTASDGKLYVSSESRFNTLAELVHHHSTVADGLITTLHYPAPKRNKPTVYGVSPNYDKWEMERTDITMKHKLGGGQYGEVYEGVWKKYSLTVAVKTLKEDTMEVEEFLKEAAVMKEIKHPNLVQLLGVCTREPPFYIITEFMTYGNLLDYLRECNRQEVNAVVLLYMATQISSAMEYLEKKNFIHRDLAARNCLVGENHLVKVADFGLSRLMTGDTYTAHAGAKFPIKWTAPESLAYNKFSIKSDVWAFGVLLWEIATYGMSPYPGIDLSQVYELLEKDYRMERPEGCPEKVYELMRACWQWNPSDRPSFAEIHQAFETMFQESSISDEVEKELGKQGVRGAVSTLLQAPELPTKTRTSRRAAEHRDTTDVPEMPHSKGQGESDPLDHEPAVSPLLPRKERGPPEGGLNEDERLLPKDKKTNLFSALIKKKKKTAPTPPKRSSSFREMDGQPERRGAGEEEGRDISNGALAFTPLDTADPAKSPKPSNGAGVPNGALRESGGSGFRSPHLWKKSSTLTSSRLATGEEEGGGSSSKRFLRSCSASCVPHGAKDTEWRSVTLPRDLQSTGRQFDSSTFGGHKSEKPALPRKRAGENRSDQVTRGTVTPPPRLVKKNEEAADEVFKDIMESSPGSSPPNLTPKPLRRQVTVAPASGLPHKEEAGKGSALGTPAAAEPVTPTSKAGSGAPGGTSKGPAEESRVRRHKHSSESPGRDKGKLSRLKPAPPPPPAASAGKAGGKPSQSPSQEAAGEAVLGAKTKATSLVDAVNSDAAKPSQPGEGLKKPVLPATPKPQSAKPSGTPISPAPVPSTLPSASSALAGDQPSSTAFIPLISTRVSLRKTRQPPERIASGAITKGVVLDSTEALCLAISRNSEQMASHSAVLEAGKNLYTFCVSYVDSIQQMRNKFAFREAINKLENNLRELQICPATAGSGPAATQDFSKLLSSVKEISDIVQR
# Some of the results follow. The calls rarely recur for the same compound in another form.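 In K562 cells expressing nanoluciferase-fused kinases, luminescence was recorded at 4 h intervals between 2 and 18 h, normalized as percent of control with DMSO at 100% and a positive control at 0%. A significant (2 sigma) signal drop marks a time point as decreased. The authors' rule for a hit is not shown and takes in more than the number of time points.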
# Molecular target: ABL1 (UniProt P00519)
# Test: kinase-Nluc reporter destabilization hit call (1 = scored as downregulated) (binary); higher = compound decreases kinase abundance
# Conditions: K562; 2-18 h
row,SMILES,kinase-Nluc reporter destabilization hit call
1,C/C(O)=C(\C#N)C(=O)Nc1cc(Br)ccc1Br (10 µM),inactive: 0
2,COc1ccc2c(c[n+](C)c3c4cc5c(cc4ccc23)OCO5)c1OC [Chelerythrine (chloride)] (10 µM),inactive: 0
3,COc1ccc2c(c1)[nH]c1c(C)nccc12 [Harmine] (10 µM),inactive: 0
4,CCCCCCCCCCCCCCCCOC[C@H](COP(=O)([O-])OCC[N+](C)(C)C)OC(C)=O (10 µM),inactive: 0
5,O=C(O)c1sc2cc(Cl)ccc2c1Cl (10 µM),inactive: 0
6,C[S+]([O-])/C=C/CCN=C=S (configuration not stated) [Sulforaphene] (10 µM),inactive: 0
7,Cn1cc(C2=C(c3cn(C4CCN(Cc5ccccn5)CC4)c4ccccc34)C(=O)NC2=O)c2ccccc21 [Enzastaurin] (10 µM),inactive: 0
8,CCN1CCN(C(=O)Cc2ccc(Nc3ncc(F)c(Nc4ccc(C(=O)Nc5ccccc5Cl)cc4)n3)cc2)CC1 (2.5 µM),inactive: 0
9,Cc1n[nH]cc1-c1cc2nc([C@@H]3CC4CCN3CC4)[nH]c(=O)c2s1 [Simurosertib] (2.5 µM),inactive: 0
10,O=C(N[C@@H](COc1ccc2[nH]c(=O)[nH]c2c1)c1ccccc1)c1cccn(Cc2ccc(F)c(F)c2)c1=O (2.5 µM),inactive: 0
11,CCOC(=O)c1c(/C(C#N)=C\N)c2ccc(Cl)c(Cl)c2n1C (10 µM),inactive: 0
12,C[C@H](CCC(=O)O)C[C@H](C)C[C@H](C)C(=O)/C=C(\O)[C@H](C)C[C@H](C)C/C=C/[C@@H](C)[C@@H](O)[C@@H](C)[C@@H](O)C[C@@H]1CC[C@@](C)([C@H]2CC[C@@](C)([C@@H](C)O)O2)O1 [Ionomycin (calcium)] (2.5 µM),inactive: 0
13,CC(C)(C)c1cc(C=C(C#N)C#N)cc(Br)c1O (2.5 µM),inactive: 0
14,C=CC(=O)N[C@H]1C=C(C)c2c(-c3cnc4ccccc4c3)c3c(N)ncnc3n2C1 (10 µM),inactive: 0
15,COC[C@H]1OC(=O)c2coc3c2[C@@]1(C)C1=C(C3=O)[C@@H]2CCC(=O)[C@@]2(C)C[C@H]1OC(C)=O [Wortmannin] (2.5 µM),inactive: 0
16,CC(=O)c1c(O)c(C)c(O)c(Cc2c(O)c3c(c(C(=O)/C=C/c4ccccc4)c2O)OC(C)(C)C=C3)c1O [Rottlerin] (2 µM),inactive: 0
17,NCCc1cn(S(=O)(=O)c2c(Cl)nc3sccn23)c2ccccc12 (10 µM),inactive: 0

# Part of the list above in order of SMILES length, largest number first.
row,SMILES,kinase-Nluc reporter destabilization hit call
12,C[C@H](CCC(=O)O)C[C@H](C)C[C@H](C)C(=O)/C=C(\O)[C@H](C)C[C@H](C)C/C=C/[C@@H](C)[C@@H](O)[C@@H](C)[C@@H](O)C[C@@H]1CC[C@@](C)([C@H]2CC[C@@](C)([C@@H](C)O)O2)O1 [Ionomycin (calcium)] (2.5 µM),inactive: 0
15,COC[C@H]1OC(=O)c2coc3c2[C@@]1(C)C1=C(C3=O)[C@@H]2CCC(=O)[C@@]2(C)C[C@H]1OC(C)=O [Wortmannin] (2.5 µM),inactive: 0
8,CCN1CCN(C(=O)Cc2ccc(Nc3ncc(F)c(Nc4ccc(C(=O)Nc5ccccc5Cl)cc4)n3)cc2)CC1 (2.5 µM),inactive: 0
